Measurements: PubChem BioAssay AID493014 (National Center for Advancing Translational Sciences (NCATS), 2011)
Among all 340,000 compounds or so, about 170 (0.05%) were called active. The inconclusive results got no clear call from the source; some entries with a clear call stand among them for comparison. Calls come from the whole dose curve; as a rule, active = well fitted inhibition curve with a large enough effect in the signal ratio, with a control signal flat (not every such curve was filed as active); inconclusive = small, poorly fitted or top-dose-only effect, or effect the other way, or a change in a side signal; inactive = flat fitted curve, though single readings scatter; the % refers to the signal ratio. Potencies of inconclusive entries are doubtful fits and often do not repeat.

Experiment: qHTS Assay to Find Inhibitors of Chronic Active B-Cell Receptor Signaling;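 for activity change, negative = inhibition: plate controls were basal doxycycline-induced cells for no effect and cells given 10 µM MG132 for full effect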
Settings: ABC-DLBCL IkBa-CBG/CBR reporter, luminescence ratio (green luciferase fused to IkBa over red control in TMD8 lymphoma cells), 4 h; activity change, negative = inhibition: at 46.1 µM (top of the series) unless noted
Outline: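 TMD8 ABC-DLBCL cells carrying doxycycline-inducible green luciferase fused to IkappaBalpha plus unfused red luciferase were exposed to compounds (up to 46 uM) for 4 hrs at 37C. Activity came from the overlap-corrected green/red luminescence ratio.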
Potency is the fitted concentration of half-maximal effect.

Compound | Potency | activity change, negative = inhibition
CC(Oc1ccc(Cl)cc1)c1ccc(C#N)c(=O)[nH]1 (centres undefined) | inconclusive: 15.8 µM [rising, partial curve, poor fit] | 
Cc1ccc(NC(=O)CSC2=NCCN2)cc1 |  | inconclusive: 13.1%
Cc1cc(C)cc(NC(=O)Cn2c(=O)oc3cc(S(=O)(=O)N4CCC(C)CC4)ccc32)c1 |  | inactive
O=C(Cc1cccs1)Nc1ccc(-c2nc3ccccc3[nH]2)cc1 |  | inconclusive: -17.1%
CCC(=O)Nc1nnc(Sc2ccc(N(C)C)cc2)s1 |  | inconclusive: 0.0391%
CCC1=C(OC(=O)N(CC)CC)N2C(=O)OC(=NCCc3c[nH]c4ccccc34)[C@]2(C)[C@H]2C1=CC[C@H]1C(=O)N(CC(=O)OC)C(=O)[C@H]12 |  | inconclusive: -8.25%
COC(=O)c1sccc1-c1ccc(C(=O)Nc2cccnc2)o1 |  | inconclusive: -2.85%
O=C(CCc1nnc(-c2ccc(-c3ccccc3)cc2)o1)NCCc1ccccn1 | inconclusive: 10 µM [falling, partial curve] | 
NS(=O)(=O)c1ccc(CCNC(=O)c2ccccc2Cc2ccccc2)cc1 |  | inconclusive: -13.8%
CC(=O)n1cc(/C=N/NC(=O)c2cccc(O)c2)c2ccccc21 | inconclusive: 11.2 µM [falling, partial curve, poor fit] | 
O=C1N=c2ccccc2=C1c1sc(=S)n(-c2ccc(O)cc2)c1O | inconclusive: 25.1 µM [falling, single point] | 
O=C(Nc1ccccc1N1CCOCC1)c1cccnc1Cl |  | inactive
Cc1cccc(N(CC(=O)NC2CCCCC2)C(=O)c2csnn2)c1 |  | inactive
Fc1cccc(/C=N/Nc2nc3ccccc3[nH]2)c1 |  | inactive
COc1cccc(-c2nnn(CCC(=O)O)n2)c1 | inconclusive: 7.08 µM [rising, partial curve, poor fit] | 
COC(=O)CSc1nc(C)c2c(n1)CCCC2 |  | inconclusive: 0.184%
COc1cc(OC)cc(C(=O)Nc2ccc3nc4n(c(=O)c3c2)CCCCC4)c1 | inconclusive: 10 µM [falling, partial curve] | 
COc1cccc(/C=N/NC(=O)CN(CCc2ccccc2)S(=O)(=O)c2ccc(NC(C)=O)cc2)c1 |  | inconclusive: 0.155%
COC(=O)C1C(O)=C(C=Nc2ccc(N)cc2)C(=O)CC1(C)C (centres undefined) | inconclusive: 5.17 µM [falling, full curve, poor fit] | 
Fc1ccccc1COc1ccc(Br)cc1CNCC1CCCO1 (centres undefined) |  | inconclusive: -9.99%
O=C(NCc1ccccc1)C(c1cccnc1)N(C(=O)c1ccccn1)c1cccc(F)c1 (centres undefined) |  | inconclusive: 0.514%
Cc1cc(N)n(-c2ccc(C(=O)O)cc2)n1 | inconclusive: 14.1 µM [falling, partial curve, poor fit] | 
COC(=O)C1=C(C)N(Cc2cccnc2)C(=O)/C1=C\c1sccc1C |  | inconclusive: -18.7%
O=C1CCc2cc(NS(=O)(=O)c3ccccc3)cc3c2N1CCC3 |  | inconclusive: -27.2%
COc1ccc(S(=O)(=O)N(CC(=O)Nc2ccccc2Cl)Cc2ccccc2)cc1 |  | inactive

As entered above:
activity change, negative = inhibition with Cc1cccc(N(CC(=O)NC2CCCCC2)C(=O)c2csnn2)c1 is entered as inactive
activity change, negative = inhibition with O=C(Nc1ccccc1N1CCOCC1)c1cccnc1Cl is entered as inactive

Following part.

Compound | Potency | activity change, negative = inhibition
Cc1ccc(NC(=O)C2CCN(c3ncnc4c3nc3n4CCCCC3)CC2)cc1Cl |  | inconclusive: 2.42%
Cc1ccc(NC(=O)COC(=O)c2cc(=O)c3ccccc3o2)c(Br)c1 |  | inconclusive: 3.69%
Cc1ccc(NNC(=O)c2c(C)noc2C)cc1Cl | inconclusive: 35.5 µM [falling, single point] | 
C/C(=N\NC(=O)c1ccccc1O)c1cccc(NC(=O)c2ccccc2)c1 | inconclusive: 35.5 µM [rising, single point] | 
CC(C)c1ccc(OCc2ccc(C(=O)O)o2)cc1 | inconclusive: 5.62 µM [rising, single point] | 
Cn1c(=O)c2c(nc(Br)n2CCSc2nc3ccccc3o2)n(C)c1=O |  | inconclusive: -12.9%
C/C(=C\c1ccc(C)o1)C(=O)c1c(C)cc(C)[nH]c1=O | inconclusive: 35.5 µM [falling, partial curve, poor fit] | 
CCCCCn1nc(C)c(/C=N\NC(=O)c2cc(C)oc2C)c1C | inconclusive: 5.17 µM [falling, single point] | 
CC(C)n1c(SCC(N)=O)nc2c1c(=O)[nH]c(=O)n2C |  | inconclusive: -3.95%
CCn1c(CSc2nc3ccccc3s2)nc2ccccc21 |  | inconclusive: -6.93%
Clc1ccccc1C1=Nn2c(nnc2-c2ccco2)SC1 |  | inconclusive: -23.5%
O=C(CCSCc1ccccc1F)NCCc1ccccc1 |  | inconclusive: 10.9%
CCOc1ccccc1N1CC(C(=O)Nc2ccc(S(=O)(=O)N3CCCCC3)cc2)CC1=O (centres undefined) |  | inactive
Nc1cccc(-n2cccc2)c1 |  | inactive
O=C(c1cccs1)N1N=C(c2ccc(O)cc2)CC1c1ccccc1 (centres undefined) | inconclusive: 16.4 µM [falling, partial curve, poor fit] | 
C/C(=N/NC(=O)C1CCN(S(=O)(=O)c2ccc(C)cc2)CC1)c1cccc([N+](=O)[O-])c1 |  | inconclusive: -0.121%
CCCc1nc(NC(=O)c2ccccc2)nc(NC(=O)c2ccccc2)n1 |  | inconclusive: 7.59%
Cc1ccc2c(CN(C)Cc3ccccc3)cc(=O)oc2c1C | inconclusive: 35.5 µM [falling, single point] | 
Cc1c(C(=O)N(C)c2ccccc2Cl)cnn1-c1ccccc1 |  | inconclusive: 7.65%
COc1ccc(-c2nc(-c3cccs3)no2)cc1 | inconclusive: 14.1 µM [falling, single point] | 
Cc1ccc(N(C(=O)Cc2c[nH]c3ccccc23)C(C(=O)NC2CCCCC2)c2ccco2)cc1 (centres undefined) |  | inconclusive: -24.2%
Cc1cc(NC(=S)N(Cc2cccc(Br)c2)CC2CCC(C(=O)O)CC2)ccc1Cl (centres undefined) |  | inconclusive: 17.7%
CCn1c2ccccc2c2nc3cc(OC)c(OC)cc3nc21 | inconclusive: 12.6 µM [rising, partial curve, poor fit] | 
COc1cccc(C2/C(=C(\O)c3ccc4c(c3)OCCO4)C(=O)C(=O)N2CCN(C)C)c1 (centres undefined) |  | inactive
